Values quoted from earlier work as cited in patent US20040115236A1, “Devices and methods for management of inflammation” (priority 2000, published 2004).
Some results were stated once for a whole list of compounds, not compound by compound.

Conditions: cited from earlier work

For `CCCc1c2oc(C(=O)O)cc(=O)c2cc2c(=O)cc(C(=O)O)n(CC)c12` [nedocromil sodium, Nedocromil sodium], the oral bioavailability is listed as “less than 1%”.
